This note sets out measurements from PubChem BioAssay AID2685 (National Center for Advancing Translational Sciences (NCATS), 2010).

Molecules are shown by their SMILES. The list shows a part of the results. The main result of the screen is listed elsewhere. These columns were measured beside it and carry no call. Compounds called inactive in the main read-out are mostly missing here. Potencies come from curve fits of mixed quality, noted in brackets.

The assay can be described thus: qHTS Assay for Lipid Storage Modulators in Drosophila S3 Cells.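 For cell number change: cells counted by Cell Tracker Red CMTPX staining in the red channel.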 The following applies: BODIPY lipid droplet fluorescence, 18-24 h; for cell number change: measured here: cell count max response, cells fed with added oleic acid. In a few lines:
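Laser-scanning cytometry quantifies lipid droplet accumulation (500–530 nm total intensity; droplet/cell object ratio) in oleic acid-fed (400 uM added) Drosophila S3 cells treated with a concentration series. 20 uM Triacsin C defined 100% inhibition.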

Where [1] appears, read: measured here: cell number channel AC50, cells fed with added oleic acid.
Setting [2] is: measured here: lipid fluorescence (Fed channel) AC50, cells fed with added oleic acid.

Usually AC50 stands for the concentration at which the activity in the assay is half-maximal. Lower therefore signals greater potency. As to `COCCn1c(SCC(=O)N2CCC(C)CC2)nc2c([nH]c3ccccc32)c1=O`, the cell number change was -37.6%. Further, under setting [1], the AC50 was 18.4 µM [falling, single point].
Take `CCn1c(SCc2ccccc2)nc2c(c1=O)SCC2`: the cell number change was -24.7%. For the same compound, the AC50 under setting [1] was 0.517 µM [falling, full curve, poor fit].
Turning to `CN(C)c1ccc(C2=NOC(CN3C(=O)c4ccccc4S3(=O)=O)C2)cc1` (stereo not given), the cell number change is -24.3%.
The same measure, in the same setting: next, `COc1ccc(C(=O)NCCNc2ccc([N+](=O)[O-])cc2)cc1`: -66%; `Cc1ccc(C)c(N2CCN(CC(=O)Nc3ccc([N+](=O)[O-])cc3C(=O)Nc3ccccc3F)CC2)c1`: 1.58%.
On to `Cc1ccc(C(=O)N/C(N)=N/c2nc3ccccc3o2)cc1`, for which the cell number change worked out at 56.9%. The half-maximal activity concentration (AC50) under setting [1] is 5.8 µM [rising, full curve, poor fit]. Also, under setting [2], the AC50 was 6.51 µM [rising, single point].
For `O=C(O)c1ccc(Cl)c(S(=O)(=O)Nc2ccccc2Cc2ccccc2)c1`, the cell number change was -38.1%. Moreover, the AC50 under setting [1] was 14.6 µM [falling, partial curve, poor fit].
On to `Cc1cc(C)c(S(=O)(=O)Nc2cc(C)on2)c(C)c1`, for which the cell number change was determined as 31.7%. The half-maximal activity concentration (AC50) under setting [1] was 7.31 µM [rising, partial curve, poor fit]. Under setting [2], the AC50 is 0.651 µM [rising, partial curve, poor fit].
With `COc1ccc(OC)c(C2c3c(oc4ccccc4c3=O)C(=O)N2CCCN(C)C)c1` (stereo not given), the cell number change was -5.64%. Also, the concentration at half-maximal activity (AC50) under setting [1] is 6.51 µM [falling, single point]. The AC50 under setting [2] was 5.17 µM [falling, single point].
Turning to `COc1ccc(-c2csc(N3C(=N)SCC3=O)n2)cc1`, the cell number change was found to be 36.2%. Also, the AC50 under setting [1] is 14.6 µM [rising, partial curve, poor fit].
As to `Cc1ccc(C(=O)NC(=S)NCc2cccnc2)c(C)c1`, the cell number change came to 16.3%. Also, under setting [2], the AC50 is 5.8 µM [rising, partial curve].
`Cc1cccc(NC(=O)CN2C(=O)COc3ccc(Cl)cc32)c1C`: the cell number change was found to be 12.6%. Moreover, under setting [2], the AC50 was 0.461 µM [rising, single point].
For the compound `COCCNC(=O)CSc1nc2nc(C)cc(C)n2n1`, the cell number change came to 11.2%. For the same compound, the AC50 under setting [2] is 0.0731 µM [falling, full curve, poor fit].
`COc1cc(C=C(c2nc3ccccc3s2)c2nc3ccccc3s2)cc(OC)c1O`: the cell number change amounted to 35.9%. Further, the AC50 under setting [1] was 5.17 µM [rising, partial curve]. Also, the half-maximal activity concentration (AC50) under setting [2] is 16.4 µM [rising, partial curve].
For the compound `Cn1c(=O)[nH]c(=O)c2c1nc(SCC(O)CO)n2CCCc1ccccc1` (stereo not given), the cell number change is -14.8%. Under setting [2], the AC50 was 0.259 µM [falling, partial curve, poor fit].
On to `CC(C)Cn1c(CCCNC(=O)c2ccc(F)cc2)nc2ccccc21`, for which the cell number change is 26.4%.
As for `COc1ccccc1NC(=O)Nc1nc(CC(=O)NC2CCCC2)cs1`, the cell number change was determined as 79.8%. Further, under setting [1], the concentration at half-maximal activity (AC50) is 8.2 µM [rising, partial curve].
`S=C(NCCc1ccccc1)NCC(c1ccco1)N1CCCCC1` (stereo not given): the cell number change is -47.8%.
As to `COc1ccccc1NC(=O)C(=O)Nc1ccc2c(c1)N(C(=O)C1CC1)CCC2`, the AC50 under setting [1] was 0.58 µM [rising, full curve, poor fit].
Take `COC(=O)C1=C(C)NC(=O)C1(Nc1nccs1)C(F)(F)F` (stereo not given): the cell number change is -4.38%. The AC50 under setting [2] is 0.366 µM [falling, partial curve, poor fit].
As to `COc1ccc(N2C(=O)N3[C@H](c4cccc(C)c4)[C@@H]4C(=O)N(Cc5ccccc5)C(=O)[C@@H]4[C@]3(Cc3ccccc3)C2=O)cc1`, the cell number change worked out at 43.7%. Further, the AC50 under setting [1] was 14.6 µM [rising, partial curve, poor fit]. Besides, the AC50 under setting [2] is 0.517 µM [rising, single point].
As for `Nn1c(=O)[nH]c2ccccc2c1=O`, the AC50 was 0.146 µM [rising, full curve] under setting [1] and 0.231 µM [rising, full curve] under setting [2].
For the compound `O=C1C(=O)N(CCN2CCOCC2)C(c2ccncc2)/C1=C(/O)c1ccc2c(c1)OCO2` (stereo not given), the cell number change worked out at 16%. Also, the AC50 under setting [2] was 0.206 µM [rising, full curve, poor fit].
As to `COC(=O)c1cc(N=C(N)N=C(N)N)cc(C(=O)OC)c1`, the cell number change was 17.2%. Also, under setting [2], the AC50 is 32.6 µM [rising, single point].
Consider `Cc1[nH]nc2c1C1(CCOC1C)C(C#N)=C(N)O2` (stereo not given), for which the cell number change is -6.62%. The AC50 under setting [2] was 0.411 µM [rising, single point].
As to `Cc1ccc(-c2csc3nc4ccc(C(=O)NCCO)cc4c(=O)n23)cc1`, the cell number change was -0.193%. Under setting [2], the AC50 is 29.1 µM [falling, single point].
In the case of `COc1cccc(NC2=Nc3cccc4cccc2c34)c1`, the cell number change was 10.9%. For the same compound, under setting [2], the AC50 was 0.00517 µM [rising, full curve, poor fit].
On to `O=C(CCl)c1ccc2c(c1)CCN2C(=O)C1CC1`, for which the cell number change was -58.9%. Further, the AC50 under setting [1] was 20.6 µM [falling, single point]. Further, the AC50 under setting [2] was 29.1 µM [falling, single point].
Take `CC(NC(=O)Nc1nnc(C(F)(F)F)s1)(C(F)(F)F)C(F)(F)F`: the cell number change was -61.1%. For the same compound, the AC50 under setting [1] was 16.4 µM [falling, partial curve]. Also, under setting [2], the AC50 is 2.59 µM [falling, full curve].
As for `CC(C)CC1NC(=O)N(CC(=O)NC2CCCc3ccccc32)C1=O` (stereo not given), the cell number change was -1.7%.
As to `Cc1ccc(N=N/C(=C\O)C(=O)c2ccncc2)cc1`, the cell number change turned out to be 17%. Also, the AC50 under setting [1] was 0.731 µM [rising, partial curve]. In addition, under setting [2], the AC50 was 3.26 µM [rising, partial curve].
With `Cc1ccccc1OCC(=O)OCC(=O)c1c[nH]c2ccccc12`, the cell number change came out at 0.501%. The AC50 under setting [2] was 18.4 µM [rising, partial curve, poor fit].
Turning to `Cc1ccc(S(=O)(=O)N(CC(=O)N2CCOCC2)C2CCCCC2)cc1`, the AC50 is 0.731 µM [falling, partial curve, poor fit] under setting [1] and 0.082 µM [falling, full curve, poor fit] under setting [2].
In the case of `CCOC(=O)c1sc(-n2[nH]c(C)cc2=O)nc1C`, the cell number change is 5.92%. For the same compound, under setting [2], the AC50 is 0.00651 µM [falling, full curve, poor fit].
With `CN(Cc1ccco1)c1ncnc2ccc(-c3ccoc3)cc12`, the half-maximal activity concentration (AC50) under setting [2] was 2.31 µM [falling, single point].
In the case of `CCC(=O)Nc1cccc(NC(=S)NC(=O)c2ccccc2)c1`, the cell number change is 78.1%. For the same compound, the concentration at half-maximal activity (AC50) under setting [1] is 18.4 µM [rising, single point]. Besides, under setting [2], the AC50 is 6.51 µM [rising, single point].
Take `COC(=O)CCc1cccc(CCC(=O)OC)c1`: the cell number change came to 17.1%. Also, the concentration at half-maximal activity (AC50) under setting [2] was 29.1 µM [rising, partial curve, poor fit].
On to `Cc1cc(C)nc(NC(=O)c2ccc(Cl)c(Cl)c2)n1`, for which the AC50 under setting [2] is 2.06 µM [rising, partial curve].
For `O=C(Oc1ccccc1)c1cccnc1Oc1ccccc1`, the cell number change worked out at 10.4%. Also, the AC50 under setting [1] is 0.461 µM [falling, full curve]. The AC50 under setting [2] was 0.461 µM [falling, full curve, poor fit].
Turning to `Cc1ccc(NC(=S)NC(=O)c2ccc(F)cc2)cc1S(=O)(=O)Nc1cccc(Cl)c1`, the cell number change stood at 0.888%. Under setting [2], the AC50 was 23.1 µM [falling, partial curve].
For the compound `COc1ccc2[nH]c(=O)c(CN(CCN3CCCC3)C(=O)Nc3ccccc3Cl)cc2c1`, the AC50 under setting [1] was 1.3 µM [rising, full curve].
On to `Cc1cccc(OCc2nnc(SCC(=O)N3c4ccccc4Sc4ccc(Cl)cc43)o2)c1`, for which the cell number change is -1.63%. Under setting [2], the AC50 is 6.51 µM [rising, single point].
For `CCC(CC)NC(=O)c1n[nH]c(=O)c2ccccc12`, the cell number change was -12.2%.
Take `CCc1c(C2(O)CCCCC2)[nH]c2cc(C(F)(F)F)ccc12`: the cell number change was -36.6%. The half-maximal activity concentration (AC50) under setting [1] is 14.6 µM [falling, single point].
On to `CC(C)CC(=O)N1CCN(S(=O)(=O)c2ccc(C3CCCCC3)cc2)CC1`, for which the cell number change is -17.7%. The AC50 under setting [1] is 0.461 µM [falling, full curve, poor fit]. Under setting [2], the AC50 is 0.206 µM [falling, full curve, poor fit].
As to `Cc1cccc(N2CCN(Cc3nc(C4CC4)no3)CC2)n1`, the cell number change stood at 17%. The AC50 under setting [2] was 0.58 µM [falling, full curve, poor fit].
On to `Cc1ccc(N2C(=O)c3cccc(Oc4ccc(Cl)cc4)c3C2=O)c(C)c1`, for which the cell number change was determined as 9.16%. Besides, the AC50 under setting [2] was 0.58 µM [falling, partial curve].
As to `COc1ccc(C=C(c2ccc(OC)cc2)c2ccc(OC)cc2)cc1`, the cell number change amounted to 72.8%. For the same compound, the AC50 under setting [1] was 8.2 µM [rising, partial curve]. Besides, the AC50 under setting [2] was 2.06 µM [rising, partial curve].
Take `COc1ccc(OCC(O)Cn2c(N)nc3c2c(=O)[nH]c(=O)n3C)cc1` (stereo not given): the cell number change stood at 5.82%. Further, under setting [1], the AC50 is 6.51 µM [rising, single point]. Besides, the concentration at half-maximal activity (AC50) under setting [2] is 6.51 µM [rising, single point].
Regarding `C=CCc1c(C)nc(C)nc1N/N=C/c1ccc(N(C)C)cc1`, the AC50 under setting [2] is 0.58 µM [falling, single point].
As for `Cc1cc(C)c(S(=O)(=O)c2c(C)cccc2C)c(OCC(C)C)n1`, the cell number change was -90.1%. The AC50 under setting [1] was 18.4 µM [falling, partial curve]. Besides, under setting [2], the AC50 is 20.6 µM [falling, partial curve].
`CC(=O)N(c1ccc2oc(=O)sc2c1)S(=O)(=O)c1cccs1`: the cell number change is -9.06%.
For `Cc1ccc(NC(=O)N2CCc3ccccc3C2)cc1`, the AC50 under setting [2] was 1.84 µM [rising, partial curve].
Turning to `O=C(c1ccc(-c2cccc(C(F)(F)F)c2)o1)N1CCN(c2ccccc2O)CC1`, the cell number change was -53.7%. Moreover, under setting [1], the AC50 was 29.1 µM [falling, single point]. Besides, the AC50 under setting [2] was 18.4 µM [falling, partial curve].
Regarding `NNC(=O)/C(=N/Nc1ccccc1)S(=O)(=O)c1ccc(Cl)cc1`, the cell number change amounted to 26.5%. The AC50 under setting [2] was 8.2 µM [rising, partial curve].
Regarding `CCN(C1CCS(=O)(=O)C1)S(=O)(=O)c1ccc(Cl)s1` (stereo not given), the cell number change was -12.9%.
In the case of `O=S(=O)(c1cccc(NC(=S)Nc2ccc(Br)cc2Cl)c1)N1CCOCC1`, the cell number change amounted to 46.2%. The AC50 under setting [1] was 29.1 µM [rising, single point]. The AC50 under setting [2] was 29.1 µM [rising, single point].
